Measured values reported in PubChem BioAssay AID328 (DTP/NCI, 2004).
The list does not hold the whole screen: it gathers tests that were run many times, whatever their T/C, doses with no T/C, and many T/C values between a quarter and a half above the control. Further doses and runs are listed elsewhere. T/C is the treated group as % of the vehicle group. Some doses have a count of surviving animals in place of a T/C: the source holds a T/C of zero for them, seemingly a mark for toxic or unscored doses. Some doses without a T/C left all or most animals alive at the check, yet need not have been tolerated: the source hardly ever lists a survival T/C far under the control, and the zero likely stands for such cases as well. Survivors were counted at the toxicity check, usually on the fifth day, unless a day is given; later deaths do not show. Schedule codes are those of the source, read here as Q, the interval in days (D) or hours (H), X, the number of doses. Additions like (4×) give the number of equal values in this list. Some entries were tested several times; the results are listed from low to high. Where survival is the endpoint, this PubChem deposit counts one and a half times the control or more as active, and values a quarter to a half above the control carry no call in these data; other NCI protocols may use other cut-offs. Some T/C values carry the count of animals alive at the toxicity check (mostly the fifth day); where none is given, no animal had died by that day.

System: BDF1 mice, P388 leukemia ip, median survival T/C
Test: NCI In Vivo Anticancer Drug Screen. Data for tumor model P388 Leukemia (intraperitoneal) in B6D2F1 (BDF1) mice
Details: T/C endpoint: median survival time, higher T/C = longer survival
Method: The antitumor activity of compounds was measured in mice bearing transplantable tumors. Survival or tumor size were measured and the results are expressed as the measurement made in the treated group (T) divided by the measurement made in the vehicle treated control group (C). The tumor model used in this assay is P388 Leukemia (intraperitoneal) in B6D2F1 (BDF1) mice

[1] = dose: 100.0 mg/kg/injection, schedule: Q01DX009 (ip), vehicle: saline
[2] = dose: 100.0 mg/kg/injection, schedule: Q01DX009 (ip), vehicle: saline with Tween-80
[3] = dose: 400.0 mg/kg/injection, schedule: Q01DX009 (ip), vehicle: saline with Tween-80
[4] = dose: 200.0 mg/kg/injection, schedule: Q01DX009 (ip), vehicle: saline with Tween-80
[5] = dose: 50.0 mg/kg/injection, schedule: Q01DX009 (ip), vehicle: saline with Tween-80
[6] = dose: 0.4 mg/kg/injection, schedule: Q01DX010 (ip), vehicle: water
[7] = dose: 50.0 mg/kg/injection, schedule: Q01DX009 (ip), vehicle: saline

For O=[n+]1ccn2ccccc2c1, the T/C [1] was 128 % of control, the survivor count (dose: 150.0 mg/kg/injection, schedule: Q01DX009 (ip), vehicle: saline) was 4 of 6 and the survivor count (dose: 300.0 mg/kg/injection, schedule: Q04DX003 (ip), vehicle: saline) was 0 of 6.

In the case of O=C1c2cc(Cl)ccc2-c2c(Cl)cc(Cl)cc21, the survivor count [2] is reported as 6 of 6 and the survivor count [3] is reported as 6 of 6.

COc1ccc(NC2=NCCS2)cc1 was tested, and the survivor count [4] was 4 of 6.

N#CC12CC3CC(CC(C3)C1)C2 was tested, and the survivor count (dose: 10.0 mg/kg/injection, schedule: Q01DX009 (ip), vehicle: saline with Tween-80) was 6 of 6.

For CC1=NNC(=O)/C1=C\c1ccc(N(C)C)cc1, the survivor count [5] was 7 of 7.

COc1ccc2c3c1OC1CC(O)C=CC31CCN(C)C2 (centres undefined) was tested, and the survivor count (dose: 10.0 mg/kg/injection, schedule: Q01DX010 (ip), vehicle: carboxymethylcellulose (CMC)) was 2 of 6 and the survivor count (dose: 20.0 mg/kg/injection, schedule: Q01DX010 (ip), vehicle: carboxymethylcellulose (CMC)) was 0 of 6.

[N-]=[N+]=CC(=O)CCC(N)C(=O)O (centres undefined) was tested, and the T/C (dose: 0.03 mg/kg/injection, schedule: Q01DX010 (ip), vehicle: saline) was 125 % of control, the T/C (dose: 0.05 mg/kg/injection, schedule: Q01DX010 (ip), vehicle: saline) was 131 and 140 % of control and the T/C (dose: 0.1 mg/kg/injection, schedule: Q01DX010 (ip), vehicle: saline) was 140 % of control. The T/C [6] was 125 % of control.

In the case of COc1cc(O)c2c(c1)OC(c1ccc(OC)c(O)c1)CC2=O (centres undefined), the T/C (dose: 25.0 mg/kg/injection, schedule: Q01DX009 (ip), vehicle: alcohol) is reported as 134 % of control.

For CO/N=C/c1cccnc1, the survivor count (dose: 200.0 mg/kg/injection, schedule: Q01DX005 (ip), vehicle: saline) was 2 of 6.

With COC(=O)Cc1c[nH]c(=O)[nH]c1=O the survivor count (dose: 400.0 mg/kg/injection, schedule: Q01DX009 (ip), vehicle: water) was 3 of 6 and the survivor count (dose: 400.0 mg/kg/injection, schedule: Q04DX003 (ip), vehicle: water) was 4 of 6.

For COc1cccc2c1C(=O)c1c(O)c3c(c(O)c1C2=O)C[C@@](O)(C(C)=O)C[C@@H]3OC1CC(NC=O)C(O)C(C)O1 (some centres undefined), the T/C (dose: 1.0 mg/kg/injection, schedule: Q01DX009 (ip), vehicle: water) was 145 % of control, the T/C (dose: 2.0 mg/kg/injection, schedule: Q01DX009 (ip), vehicle: water) was 137 % of control and the T/C (dose: 4.0 mg/kg/injection, schedule: Q01DX009 (ip), vehicle: water) was 135 % of control.

For N=[N+]=CC(=O)CCC(NC(=O)C(CCC(=O)C=[N+]=N)NC(=O)CCC(N)C(=O)O)C(=O)O (centres undefined), the T/C (dose: 0.05 mg/kg/injection, schedule: Q01DX009 (ip), vehicle: water) was 127 % of control, the T/C (dose: 0.1 mg/kg/injection, schedule: Q01DX009 (ip), vehicle: water) was 145 % of control and the T/C (dose: 0.1 mg/kg/injection, schedule: Q01DX010 (ip), vehicle: other) was 140 % of control. The T/C (dose: 0.25 mg/kg/injection, schedule: Q01DX005 (iv), vehicle: water) was 145 % of control, the survivor count [6] was 6 of 6 and the T/C (dose: 0.5 mg/kg/injection, schedule: Q01DX005 (iv), vehicle: water) was 145 % of control. The T/C (dose: 1.0 mg/kg/injection, schedule: Q01DX005 (iv), vehicle: water) was 136 % of control, the survivor count (dose: 1.2 mg/kg/injection, schedule: Q01DX010 (ip), vehicle: water) was 6 of 6 and the survivor count (dose: 2.0 mg/kg/injection, schedule: Q01DX005 (iv), vehicle: water) was 6 of 6. The survivor count (dose: 3.0 mg/kg/injection, schedule: Q01DX005 (iv), vehicle: water) was 6 of 6, the survivor count (dose: 4.0 mg/kg/injection, schedule: Q01DX005 (iv), vehicle: water) was 6 of 6 and the T/C (dose: 60.0 mg/kg/injection, schedule: Q04DX003 (ip), vehicle: water) was 131 % of control. For the same compound, the survivor count (dose: 200.0 mg/kg/injection, schedule: Q04DX003 (oral), vehicle: water) was 4 of 6.

In the case of CCSc1ccc2c(cc1=O)[C@@H](NC1OC(CO)C(O)C(O)C1O)CCc1cc(OC)c(OC)c(OC)c1-2 (some centres undefined), the T/C (dose: 200.0 mg/kg/injection, schedule: Q01DX009 (ip), vehicle: other) is reported as 133 % of control.

With Cc1ncc(CO)c(C2NOCc3nscc32)c1O (centres undefined) the survivor count (dose: 28.0 mg/kg/injection, schedule: Q01DX009 (ip), vehicle: Klucel (hydroxypropylcellulose) (HPC)) was 6 of 6, the survivor count (dose: 30.0 mg/kg/injection, schedule: Q04DX003 (ip), vehicle: saline) was 6 of 6 and the survivor count (dose: 65.0 mg/kg/injection, schedule: Q04DX003 (ip), vehicle: saline) was 6 of 6. The survivor count (dose: 100.0 mg/kg/injection, schedule: Q04DX003 (ip), vehicle: saline) was 3 of 6 and the survivor count (dose: 150.0 mg/kg/injection, schedule: Q04DX003 (ip), vehicle: saline) was 2 of 6.

In the case of COC1CC(N=[N+]=[N-])C(OC(=O)c2ccccc2)C(C)O1 (centres undefined), the survivor count (dose: 25.0 mg/kg/injection, schedule: Q01DX009 (ip), vehicle: saline with Tween-80) is reported as 6 of 6, the survivor count [5] is reported as 5 of 6 and 6 of 6 and the survivor count [2] is reported as 2 of 6. For the same compound, the survivor count [4] was 4 of 6 (2×) and the survivor count [3] was 6 of 6.

For NC(COC(c1ccccc1)(c1ccccc1)c1ccccc1)C(=O)O (centres undefined), the T/C (dose: 45.0 mg/kg/injection, schedule: Q01DX009 (ip), vehicle: Klucel (hydroxypropylcellulose) (HPC)) was 125 % of control, the T/C (dose: 135.0 mg/kg/injection, schedule: Q04DX003 (ip), vehicle: other) was 145 % of control and the T/C (dose: 200.0 mg/kg/injection, schedule: Q04DX003 (ip), vehicle: saline) was 145 % of control [5 of 6 alive]. For the same compound, the survivor count (dose: 400.0 mg/kg/injection, schedule: Q04DX003 (ip), vehicle: saline) was 2 of 6.

In the case of NCCc1ccc(OCc2ccccc2)c(OCc2ccccc2)c1, the T/C (dose: 12.0 mg/kg/injection, schedule: Q01DX009 (ip), vehicle: saline) is reported as 140 % of control and the survivor count [7] is reported as 5 of 6.

In the case of CC=NC(C[S-])C(=O)O.CC=NC(C[S-])C(=O)O.[Fe+2] (centres undefined), the survivor count [3] is reported as 3 of 6 and 5 of 6.

In the case of O=C(CN1CC1)NCCCCCCCCCNC(=O)CN1CC1, the survivor count (dose: 18.75 mg/kg/injection, schedule: Q01DX009 (ip), vehicle: saline sonified) is reported as 5 of 6, the T/C (dose: 27.0 mg/kg/injection, schedule: Q04DX003 (ip), vehicle: saline) is reported as 138 % of control and the survivor count (dose: 37.5 mg/kg/injection, schedule: Q01DX009 (ip), vehicle: saline sonified) is reported as 6 of 6. The survivor count (dose: 75.0 mg/kg/injection, schedule: Q01DX009 (ip), vehicle: saline sonified) was 3 of 6 and the survivor count (dose: 75.0 mg/kg/injection, schedule: Q04DX003 (ip), vehicle: saline sonified) was 1 of 5.

For C=C(C)c1ccc(C)c(C)c1, the T/C [4] was 134 % of control.

In the case of COC(=O)[CH](C[N+](=O)[O-])[Hg][Cl] (centres undefined), the survivor count (dose: 6.25 mg/kg/injection, schedule: Q01DX009 (ip), vehicle: Klucel (hydroxypropylcellulose) (HPC)) is reported as 4 of 6 and the survivor count (dose: 9.3 mg/kg/injection, schedule: Q04DX003 (ip), vehicle: Klucel (hydroxypropylcellulose) (HPC)) is reported as 5 of 6.

C[n+]1c(-c2ccccc2)c2ccccc2c2ccccc21 was tested, and the survivor count (dose: 6.0 mg/kg/injection, schedule: Q01DX009 (ip), vehicle: water) was 3 of 6 and the survivor count (dose: 12.0 mg/kg/injection, schedule: Q04DX003 (ip), vehicle: water) was 1 of 6.

CC1OC(Oc2c(-c3cc(O)c(O)c(O)c3)oc3cc(O)cc(O)c3c2=O)C(O)C(O)C1O (centres undefined) was tested, and the survivor count [4] was 5 of 6.

With CC[P+](CC)(CC)CCCCI the survivor count [7] was 5 of 6 and the survivor count [1] was 0 of 6.

With CN1CCN=C1c1ccc(NC(=O)c2ccc(C(=O)Nc3ccc(C4=NCCN4C)cc3)c(N)c2)cc1 the T/C (dose: 1.3 mg/kg/injection, schedule: Q01DX009 (ip), vehicle: saline) was 129 % of control.

In the case of CC(C)OC(=O)C1(N)CCCC1, the T/C (dose: 264.0 mg/kg/injection, schedule: Q04DX003 (ip), vehicle: saline with Tween-80) is reported as 130 % of control and the T/C (dose: 264.0 mg/kg/injection, schedule: Q04DX003 (ip), vehicle: saline) is reported as 125 % of control.

O=C(NC1CCCCC1)O/N=C/c1ccccn1 was tested, and the survivor count (dose: 200.0 mg/kg/injection, schedule: Q01DX001 (ip), vehicle: other) was 5 of 6.
